The values that follow come from paper doi:10.1101/2021.01.21.427388.

The chains behind the UniProt entries cited, without tags or fusion partners.
UniProt Q92508: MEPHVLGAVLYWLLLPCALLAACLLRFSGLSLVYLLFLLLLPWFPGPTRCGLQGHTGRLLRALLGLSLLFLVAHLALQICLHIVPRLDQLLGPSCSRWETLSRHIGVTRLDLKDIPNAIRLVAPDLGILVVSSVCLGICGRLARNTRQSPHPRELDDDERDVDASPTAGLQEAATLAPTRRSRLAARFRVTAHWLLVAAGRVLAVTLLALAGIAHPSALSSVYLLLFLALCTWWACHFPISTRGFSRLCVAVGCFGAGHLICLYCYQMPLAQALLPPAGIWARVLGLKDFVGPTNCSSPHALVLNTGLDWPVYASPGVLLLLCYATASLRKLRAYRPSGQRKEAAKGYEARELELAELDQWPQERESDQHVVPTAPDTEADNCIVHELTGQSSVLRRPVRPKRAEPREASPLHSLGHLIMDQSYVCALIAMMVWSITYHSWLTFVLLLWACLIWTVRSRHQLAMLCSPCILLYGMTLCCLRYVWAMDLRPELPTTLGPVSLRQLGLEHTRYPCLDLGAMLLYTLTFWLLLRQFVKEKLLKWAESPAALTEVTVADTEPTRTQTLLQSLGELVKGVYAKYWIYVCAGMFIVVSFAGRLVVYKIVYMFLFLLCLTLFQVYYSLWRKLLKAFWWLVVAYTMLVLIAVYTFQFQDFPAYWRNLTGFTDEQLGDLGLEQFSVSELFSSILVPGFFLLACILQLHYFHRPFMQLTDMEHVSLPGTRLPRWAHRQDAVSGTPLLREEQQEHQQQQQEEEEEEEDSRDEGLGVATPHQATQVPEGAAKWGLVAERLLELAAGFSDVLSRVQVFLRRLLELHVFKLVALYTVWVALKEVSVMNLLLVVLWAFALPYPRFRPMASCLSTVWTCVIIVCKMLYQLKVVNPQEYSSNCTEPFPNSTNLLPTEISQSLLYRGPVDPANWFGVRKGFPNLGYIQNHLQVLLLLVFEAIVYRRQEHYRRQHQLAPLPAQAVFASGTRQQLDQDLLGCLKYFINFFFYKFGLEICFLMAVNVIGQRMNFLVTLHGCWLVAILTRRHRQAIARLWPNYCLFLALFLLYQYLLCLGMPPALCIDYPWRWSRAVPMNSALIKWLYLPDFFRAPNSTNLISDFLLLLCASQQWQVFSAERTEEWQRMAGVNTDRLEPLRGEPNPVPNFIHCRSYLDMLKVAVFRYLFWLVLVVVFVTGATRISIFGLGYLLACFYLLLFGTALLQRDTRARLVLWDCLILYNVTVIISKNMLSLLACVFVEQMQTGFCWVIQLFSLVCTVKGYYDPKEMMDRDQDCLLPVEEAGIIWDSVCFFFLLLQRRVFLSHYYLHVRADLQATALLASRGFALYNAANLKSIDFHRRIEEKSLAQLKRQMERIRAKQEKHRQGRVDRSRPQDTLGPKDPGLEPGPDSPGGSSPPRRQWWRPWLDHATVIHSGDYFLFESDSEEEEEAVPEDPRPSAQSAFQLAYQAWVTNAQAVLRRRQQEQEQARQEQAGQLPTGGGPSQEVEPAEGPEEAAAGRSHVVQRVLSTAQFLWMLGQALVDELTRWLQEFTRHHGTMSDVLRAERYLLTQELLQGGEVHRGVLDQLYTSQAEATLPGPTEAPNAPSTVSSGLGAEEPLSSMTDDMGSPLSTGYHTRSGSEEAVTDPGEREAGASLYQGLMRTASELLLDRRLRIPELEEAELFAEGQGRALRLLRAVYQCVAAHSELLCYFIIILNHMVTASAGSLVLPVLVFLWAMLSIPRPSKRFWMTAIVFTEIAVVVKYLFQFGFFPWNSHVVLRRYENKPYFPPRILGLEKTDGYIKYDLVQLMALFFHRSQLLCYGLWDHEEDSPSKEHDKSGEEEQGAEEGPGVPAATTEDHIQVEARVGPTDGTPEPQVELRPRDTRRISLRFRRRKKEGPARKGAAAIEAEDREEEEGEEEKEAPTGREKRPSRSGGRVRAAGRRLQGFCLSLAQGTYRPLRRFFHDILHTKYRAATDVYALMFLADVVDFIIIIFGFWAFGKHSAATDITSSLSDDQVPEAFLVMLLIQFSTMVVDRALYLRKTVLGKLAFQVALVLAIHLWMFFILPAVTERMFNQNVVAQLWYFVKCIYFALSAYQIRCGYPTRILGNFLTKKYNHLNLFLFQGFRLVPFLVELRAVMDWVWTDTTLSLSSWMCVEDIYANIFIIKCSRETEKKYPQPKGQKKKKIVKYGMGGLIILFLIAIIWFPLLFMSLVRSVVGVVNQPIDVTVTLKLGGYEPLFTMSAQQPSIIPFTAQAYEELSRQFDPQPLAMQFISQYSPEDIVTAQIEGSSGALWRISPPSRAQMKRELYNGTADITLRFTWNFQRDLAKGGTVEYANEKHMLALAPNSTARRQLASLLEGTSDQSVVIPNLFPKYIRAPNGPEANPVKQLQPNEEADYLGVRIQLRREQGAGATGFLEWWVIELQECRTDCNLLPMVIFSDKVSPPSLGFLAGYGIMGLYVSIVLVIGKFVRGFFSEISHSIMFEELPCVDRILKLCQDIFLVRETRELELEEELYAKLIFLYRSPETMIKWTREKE
UniProt Q12791: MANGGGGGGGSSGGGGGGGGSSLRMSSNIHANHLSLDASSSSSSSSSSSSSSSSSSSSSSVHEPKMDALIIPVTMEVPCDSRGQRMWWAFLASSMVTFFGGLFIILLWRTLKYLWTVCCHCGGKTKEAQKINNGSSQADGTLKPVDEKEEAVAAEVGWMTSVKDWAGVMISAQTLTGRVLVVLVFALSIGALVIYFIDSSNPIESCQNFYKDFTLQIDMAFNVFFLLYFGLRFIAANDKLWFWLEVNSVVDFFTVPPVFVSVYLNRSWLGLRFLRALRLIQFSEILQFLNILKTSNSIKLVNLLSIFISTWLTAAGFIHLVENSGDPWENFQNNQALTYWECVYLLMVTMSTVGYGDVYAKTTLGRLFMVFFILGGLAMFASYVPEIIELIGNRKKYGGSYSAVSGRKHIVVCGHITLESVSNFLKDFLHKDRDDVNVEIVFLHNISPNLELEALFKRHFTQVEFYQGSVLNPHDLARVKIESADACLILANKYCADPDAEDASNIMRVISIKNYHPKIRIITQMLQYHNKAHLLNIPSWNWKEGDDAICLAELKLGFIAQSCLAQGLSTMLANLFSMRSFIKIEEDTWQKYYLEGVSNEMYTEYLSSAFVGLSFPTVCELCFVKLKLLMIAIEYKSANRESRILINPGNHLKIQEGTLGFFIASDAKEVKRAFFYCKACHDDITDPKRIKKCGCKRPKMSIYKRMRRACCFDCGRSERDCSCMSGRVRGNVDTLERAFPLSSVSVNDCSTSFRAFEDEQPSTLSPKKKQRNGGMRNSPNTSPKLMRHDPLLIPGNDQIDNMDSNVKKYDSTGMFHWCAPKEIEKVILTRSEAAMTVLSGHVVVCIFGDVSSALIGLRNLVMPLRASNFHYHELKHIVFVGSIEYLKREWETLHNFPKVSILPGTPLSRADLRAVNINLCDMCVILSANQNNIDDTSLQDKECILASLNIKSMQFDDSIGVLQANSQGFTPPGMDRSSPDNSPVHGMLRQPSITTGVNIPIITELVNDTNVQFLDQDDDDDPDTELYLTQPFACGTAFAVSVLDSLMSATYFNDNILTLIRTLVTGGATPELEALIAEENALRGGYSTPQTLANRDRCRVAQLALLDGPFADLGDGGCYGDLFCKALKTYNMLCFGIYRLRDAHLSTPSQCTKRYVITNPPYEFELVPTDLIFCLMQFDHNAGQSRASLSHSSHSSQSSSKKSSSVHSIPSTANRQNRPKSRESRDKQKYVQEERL

Read-outs that look alike come from different tables or passages of the source. These are yes or no findings as the source states them, for the method shown. Binding seen in cells or lysates may run through a third protein.

Holding throughout (assay): co-IP
Test [1] has as its target Piezo1 (human (endogenous in human atrial fibroblasts)) (UniProt Q92508).
For test [2] the target is unchanged. This is another data set of the same source.
The target in test [3] is Ca2+-activated potassium channel of large conductance (BKCa) (human (endogenous in human atrial fibroblasts)) (UniProt Q12791).
For test [4] the target is unchanged. This is another data set of the same source.

On to “Ca2+-activated potassium channel of large conductance (BKCa) (from UniProt Q12791 1-1236)”, for which the binding result in test [1] and in test [2] was “no binding” throughout.
On to Piezo1 (from UniProt Q92508 1-2521), for which the binding entry in test [3] and in test [4] was “no binding” in each case.
